Targets (5′ to 3′):
TPP: TPP riboswitch RNA three-way junction, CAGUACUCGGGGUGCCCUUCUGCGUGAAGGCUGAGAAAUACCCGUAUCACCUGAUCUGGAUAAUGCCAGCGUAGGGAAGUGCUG. Hit rate about 0.7% of about 24,000 compounds.
SAM-II: SAM-II riboswitch RNA pseudoknot, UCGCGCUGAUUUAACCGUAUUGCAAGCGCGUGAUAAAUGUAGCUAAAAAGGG. Hit rate about 1% of about 21,000 compounds.
PreQ1: PreQ1 riboswitch RNA pseudoknot, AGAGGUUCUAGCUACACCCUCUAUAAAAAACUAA. From B. subtilis. Hit rate about 0.7% of about 24,000 compounds.

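The test is a small-molecule microarray: each compound is printed twice on a reactive slide, and binding shows as fluorescence of the labelled oligonucleotide after washing. The data file lists only calls. An earlier report of the laboratory on the PreQ1, TPP and SAM-II riboswitches (doi:10.1038/s41467-019-09493-3) used 1 µM RNA for 2 h and required a mean Z-score above 3 (spot signal-to-noise against the whole library), a score well above that on a control array, and duplicate spots agreeing (coefficient of variation under 100); it then also set aside compounds that hit other targets, which this list keeps. The cut-offs behind this list may differ. A missing hit is not proof of no binding, and a hit is not a measured affinity.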
A compound is marked Y if it was called a hit and N if it was screened but was not.
Compounds were drawn at random from those tested, without regard to their results.
A dash means that no call is listed here.

SMILES | TPP | SAM-II | PreQ1
CCCCC(F)(F)[C@@]1(O)CC[C@H]2[C@@H](CC(=O)[C@@H]2CCCCCCC(=O)O)O1 | N | N | N
O=C(CC1=CSC2=NCCCN12)N1C[C@@H](CN2CCOCC2)[C@@H](CO)C1 | N | N | N
O=C(c1cn(C2CCCCC2)nn1)N(Cc1cccnc1)C1CCNCC1 | N | N | N
Cc1ccc(S(=O)(=O)[C@H]2CS(=O)(=O)C[C@@H]2NCCc2ccc(Cl)cc2)cc1 | N | - | N
CCn1cc(C(=O)N2C[C@@H](CN3CCCN(C)CC3)[C@@H](CO)C2)cn1 | N | N | N
Nc1ccc(C(=O)N2CCOc3c(O)cc(-c4cccc(Cl)c4)cc3C2)cn1 | N | N | N
Cc1nc(C)c(CC(=O)NCCNc2cccnc2)s1 | N | N | N
CCOCCCNCc1c(C(=O)O)n(Cc2ccc(C)cc2)c2ccccc12 | N | - | N
CN1CCN(C[C@@H]2CN(C(=O)Cc3ccsc3)C[C@@H]2CO)CC1 | N | N | N
c1ncn(-c2ccc(C3NCCc4[nH]cnc43)cc2)n1 (stereo unspecified) | N | N | N
CCCCCc1ccc(-c2ccc(-c3ncc(N)cn3)cc2)cc1 | Y | Y | Y
OC[C@]12COc3ccccc3[C@H]1CN(c1nc3ccc(Cl)cc3s1)C2 | N | N | N
O=C(NCc1ccc(CO)cc1)C1CCOc2ccccc2C1 (stereo unspecified) | N | N | N
N#Cc1cnn(C2CCS(=O)(=O)C2)c1N (stereo unspecified) | N | N | N
COC(=O)CN1C(c2cc(OC)c(OC)c(OC)c2)Nc2ccc(C)cc2C1c1ccccc1 (stereo unspecified) | N | N | N
Nc1ccnn1Cc1ccncc1 | N | N | N
Cn1c(=O)c2c(nc(N3CCOCC3)n2CCCN)n(C)c1=O | N | N | N
CCOc1ccc(C(=O)N2C[C@@H](CN(C)C)[C@@H](CO)C2)o1 | N | N | N
O=c1cc(-c2ccc(O)c(O)c2)oc2cc(O)cc(O)c12 | N | N | N
C=CCOC(=O)C1=C(C)OC(N)=C(C(=O)OCCCC)C12C(=O)N(C)c1ccccc12 (stereo unspecified) | N | N | N
Cc1ccccc1CNc1cc(C(C)C)nc2nc(-c3cccnc3)nn12 | N | - | N
Cc1nc(-c2c(-c3ccccc3)ncn2CC(O)Cc2ccccc2)c[nH]1 (stereo unspecified) | N | N | N
CCc1ccc(C(=O)N2CC[C@H](N3CCN(C)CC3)[C@H](CCCO)C2)[nH]1 | N | N | N
NS(=O)(=O)c1ccc(CCNCc2ccc(-c3ccc(Cl)cc3)o2)cc1 | N | - | N
Cc1ccc(C(C)C)c(OCC(O)Cn2cnc3ccccc32)c1 (stereo unspecified) | N | N | N
CCS(=O)(=O)N1CC(CC#N)(n2cc(-c3ncnc4[nH]ccc34)cn2)C1 | N | N | N
CCOC(=O)N1CCN(c2c(NCCCN3CCCCCC3)c(=O)c2=O)CC1 | N | - | N
O=C1N(CCCc2ccccc2)CCCC1(O)CNCc1ccccc1F (stereo unspecified) | N | N | N
Cc1nc[nH]c1-c1cc(-c2cc[nH]c2)nc(N)c1C#N | N | N | N
COc1ccccc1N1CCN(CC(O)c2c[nH]c3ccc(F)cc23)CC1 (stereo unspecified) | N | - | N
Cc1nc(C2C=CCN2)n(-c2ccc(Cl)cc2C)n1 (stereo unspecified) | N | N | N
N#Cc1nc(-c2ccc(S(=O)(=O)N3CCCC3)cc2)oc1NC1CCCCC1 | N | - | N
N#Cc1cnn2c(NC3CCCCCCC3)c(-c3ccc(F)cc3)[nH]c12 | N | - | N
COc1ccc(NC(=O)N2CCN(C(=O)Nc3ccc(OC)cc3)CC2)cc1 | N | N | N
Nc1nc2c(s1)CN(c1ncnc3sc4c(c13)CCNC4)CC2 | N | N | N
Nc1ncnc2c1ncn2C=C=CCO | N | N | N
COc1ccc(-c2noc(-c3cn(Cc4ccc(N)cc4)cn3)n2)cc1 | N | N | N
COC(=O)CNC(c1ccccc1)c1cc(Br)ccc1NS(=O)(=O)c1ccc(C)cc1 (stereo unspecified) | N | N | N
COc1ccc(-c2c(-c3ccccc3)oc3ncnc(N)c23)cc1 | N | N | N
CN(C[C@@H]1COCCO1)S(=O)(=O)Nc1ccc2ccc3ncc(-c4cnn(C)c4)cc3c(=O)c2c1 | N | N | N
Cc1ccc(Nc2nc3ccccc3c3nncn23)cc1Cl | N | N | N
CN(C)C(C(=O)NCCNc1cccnc1)c1ccccc1F (stereo unspecified) | N | N | N
C=C(C)Cn1c(N2CCN(CCO)CC2)nc2c1c(=O)n(C)c(=O)n2C | N | - | N
CCNCC=CCOc1ccc(C(C)(C)C)cc1.Cl | N | N | N
Cc1ccc(OCC(O)CNS(=O)(=O)c2ccccc2C(=O)N2CCCCC2)cc1 (stereo unspecified) | N | N | N
CC12CC3CC(C)(C1)CC(C(=O)N1CC(O)C1)(C3)C2 | N | N | N
CCc1n(CC(O)COc2ccc(C(=O)OC)cc2)c2ccccc2[n+]1C (stereo unspecified) | N | N | N

5 of the entries, repeated:

| SMILES | TPP | SAM-II | PreQ1 |
|---|---|---|---|
| `COc1ccc(-c2noc(-c3cn(Cc4ccc(N)cc4)cn3)n2)cc1` | N | N | N |
| `CCOc1ccc(C(=O)N2C[C@@H](CN(C)C)[C@@H](CO)C2)o1` | N | N | N |
| `Cc1nc[nH]c1-c1cc(-c2cc[nH]c2)nc(N)c1C#N` | N | N | N |
| `COc1ccc(-c2c(-c3ccccc3)oc3ncnc(N)c23)cc1` | N | N | N |
| `CCNCC=CCOc1ccc(C(C)(C)C)cc1.Cl` | N | N | N |

From ROBIN, a set of small-molecule microarray screens (doi:10.1002/anie.202211358).